{"source": "patent US20080118437A1", "about": "“Diagnosis and treatment O prostate cancer” (Regents of the University of Michigan, priority 2006, published 2008)", "key": {"[1]": {"system": "PC-3 cells", "assay": "WST-1 proliferation assay with MCP-1 with or without LY294002", "format": "cell-based, human", "conditions": "LY294002 1 μM, 96 hour assay", "description": "(§1) Proliferation Assay-Cells were seeded at a density of 4×10^3 cells/well in a six well plate in regular media. Twenty four hours after seeding the media was changed with serum free media with increasing concentrations of MCP-1(1-100 ng/mL) in the presence of absence of LY294002 (1 μM). Cell growth was determined at 24, 48, 72, and 96 hours after seeding using the WST-1 assay (Pierce Biotech) following the manufacturer's instructions."}, "[2]": {"system": "VCaP cells", "assay": "WST-1 proliferation assay with MCP-1 with or without LY294002", "format": "cell-based, human", "conditions": "LY294002 1 μM, 96 hour assay", "description": "as §1"}}, "note": "At least one compound was matched to its structure with a doubt left.", "data": [{"molecule": "O=c1cc(N2CCOCC2)oc2c(-c3ccccc3)cccc12", "note": "[LY294002]", "values": [{"measurement": "effect on MCP-1 induced proliferation", "setting": "[1]", "value": "attenuated"}, {"measurement": "effect on MCP-1 induced proliferation", "setting": "[2]", "value": "attenuated"}]}]}
